In the supplement of paper PMC12067093, “Discovery and optimisation of a covalent ligand for TRIM25 and its application to targeted protein ubiquitination” (Chemical Science, 2025):
This is one part of the list.
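Also: competitive profiling in live THP-1 cells: cysteine peptides tagged with an iodoacetamide desthiobiotin (IA-DTB) probe, intensity after compound treatment relative to DMSO-treated cells.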

Amino acid sequences for entries named in this document (tags omitted). A change or cut given only in a name is not applied to a line headed by its entry.
UniProt Q6P1N9: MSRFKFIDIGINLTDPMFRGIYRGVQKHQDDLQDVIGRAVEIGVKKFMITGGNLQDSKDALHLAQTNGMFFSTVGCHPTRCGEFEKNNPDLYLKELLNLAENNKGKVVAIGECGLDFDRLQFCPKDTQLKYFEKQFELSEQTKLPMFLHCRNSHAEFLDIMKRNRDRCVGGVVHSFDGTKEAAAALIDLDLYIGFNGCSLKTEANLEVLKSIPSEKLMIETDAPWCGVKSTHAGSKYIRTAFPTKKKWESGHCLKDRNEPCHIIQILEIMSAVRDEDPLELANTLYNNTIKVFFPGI
UniProt Q9BZK7: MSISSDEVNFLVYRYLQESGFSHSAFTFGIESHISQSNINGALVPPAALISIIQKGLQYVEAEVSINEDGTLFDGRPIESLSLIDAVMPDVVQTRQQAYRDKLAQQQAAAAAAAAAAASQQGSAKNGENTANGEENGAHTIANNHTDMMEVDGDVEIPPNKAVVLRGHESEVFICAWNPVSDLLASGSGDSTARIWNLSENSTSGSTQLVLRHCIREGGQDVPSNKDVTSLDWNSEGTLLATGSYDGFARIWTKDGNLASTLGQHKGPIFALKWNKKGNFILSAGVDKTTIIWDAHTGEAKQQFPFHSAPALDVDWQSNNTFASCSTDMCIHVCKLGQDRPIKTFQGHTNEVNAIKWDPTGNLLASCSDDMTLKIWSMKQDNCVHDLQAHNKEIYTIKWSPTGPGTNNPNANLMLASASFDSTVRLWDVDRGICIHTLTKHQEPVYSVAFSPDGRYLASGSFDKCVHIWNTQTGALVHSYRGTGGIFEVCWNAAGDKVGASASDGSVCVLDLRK
UniProt Q9Y4P3: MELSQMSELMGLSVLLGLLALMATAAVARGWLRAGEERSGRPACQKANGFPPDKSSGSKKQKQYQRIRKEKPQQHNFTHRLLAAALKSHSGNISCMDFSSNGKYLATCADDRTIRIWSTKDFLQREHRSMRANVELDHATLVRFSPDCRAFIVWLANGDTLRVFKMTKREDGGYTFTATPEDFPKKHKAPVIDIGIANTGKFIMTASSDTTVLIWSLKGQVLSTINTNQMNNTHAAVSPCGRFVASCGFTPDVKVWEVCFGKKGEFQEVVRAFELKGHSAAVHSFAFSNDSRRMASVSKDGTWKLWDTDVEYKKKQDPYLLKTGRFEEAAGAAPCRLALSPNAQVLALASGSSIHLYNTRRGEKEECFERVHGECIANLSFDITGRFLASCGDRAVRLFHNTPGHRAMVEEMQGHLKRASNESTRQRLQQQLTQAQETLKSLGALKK
UniProt Q53T94: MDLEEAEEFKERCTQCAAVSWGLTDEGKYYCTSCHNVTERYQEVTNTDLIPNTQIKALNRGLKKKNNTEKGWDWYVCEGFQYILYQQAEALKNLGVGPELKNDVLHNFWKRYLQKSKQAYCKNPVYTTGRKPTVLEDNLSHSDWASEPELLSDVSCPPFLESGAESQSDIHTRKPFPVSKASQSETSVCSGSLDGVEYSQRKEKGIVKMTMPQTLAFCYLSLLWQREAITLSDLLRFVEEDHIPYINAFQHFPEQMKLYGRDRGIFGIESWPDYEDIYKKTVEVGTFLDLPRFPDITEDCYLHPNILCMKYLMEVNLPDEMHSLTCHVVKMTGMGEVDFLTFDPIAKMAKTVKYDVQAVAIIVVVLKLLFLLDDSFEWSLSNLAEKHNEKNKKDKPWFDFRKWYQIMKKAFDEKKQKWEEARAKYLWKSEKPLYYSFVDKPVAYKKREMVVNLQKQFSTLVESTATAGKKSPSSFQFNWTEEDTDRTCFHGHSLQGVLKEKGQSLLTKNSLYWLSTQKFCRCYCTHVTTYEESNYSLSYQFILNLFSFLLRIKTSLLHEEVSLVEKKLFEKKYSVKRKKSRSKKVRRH
UniProt Q7L7X3: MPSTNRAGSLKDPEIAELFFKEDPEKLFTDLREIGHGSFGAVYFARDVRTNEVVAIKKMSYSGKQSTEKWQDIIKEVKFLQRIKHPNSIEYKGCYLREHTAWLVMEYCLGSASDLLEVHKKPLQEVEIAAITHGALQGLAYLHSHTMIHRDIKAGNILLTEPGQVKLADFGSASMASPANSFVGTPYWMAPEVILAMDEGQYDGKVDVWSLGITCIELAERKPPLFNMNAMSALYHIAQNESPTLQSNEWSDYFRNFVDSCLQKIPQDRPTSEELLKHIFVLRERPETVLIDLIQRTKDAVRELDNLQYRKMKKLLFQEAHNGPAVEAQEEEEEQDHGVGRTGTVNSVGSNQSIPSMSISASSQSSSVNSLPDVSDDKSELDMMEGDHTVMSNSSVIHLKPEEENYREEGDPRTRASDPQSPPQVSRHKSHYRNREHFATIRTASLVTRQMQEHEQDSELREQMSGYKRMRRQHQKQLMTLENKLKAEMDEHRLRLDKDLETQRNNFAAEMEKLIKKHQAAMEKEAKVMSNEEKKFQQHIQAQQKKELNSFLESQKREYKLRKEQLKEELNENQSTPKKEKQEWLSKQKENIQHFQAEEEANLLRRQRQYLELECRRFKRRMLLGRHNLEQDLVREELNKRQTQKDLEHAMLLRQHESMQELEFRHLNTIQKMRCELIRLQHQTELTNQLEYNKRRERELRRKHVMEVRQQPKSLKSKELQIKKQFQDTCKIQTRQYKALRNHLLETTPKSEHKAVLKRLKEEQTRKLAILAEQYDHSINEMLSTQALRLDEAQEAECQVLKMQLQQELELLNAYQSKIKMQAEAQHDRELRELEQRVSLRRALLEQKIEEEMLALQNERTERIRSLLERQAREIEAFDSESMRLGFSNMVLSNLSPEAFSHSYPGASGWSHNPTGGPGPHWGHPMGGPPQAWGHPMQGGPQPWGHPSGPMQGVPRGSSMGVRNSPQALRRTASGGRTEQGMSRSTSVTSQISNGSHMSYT
UniProt Q9UHD2: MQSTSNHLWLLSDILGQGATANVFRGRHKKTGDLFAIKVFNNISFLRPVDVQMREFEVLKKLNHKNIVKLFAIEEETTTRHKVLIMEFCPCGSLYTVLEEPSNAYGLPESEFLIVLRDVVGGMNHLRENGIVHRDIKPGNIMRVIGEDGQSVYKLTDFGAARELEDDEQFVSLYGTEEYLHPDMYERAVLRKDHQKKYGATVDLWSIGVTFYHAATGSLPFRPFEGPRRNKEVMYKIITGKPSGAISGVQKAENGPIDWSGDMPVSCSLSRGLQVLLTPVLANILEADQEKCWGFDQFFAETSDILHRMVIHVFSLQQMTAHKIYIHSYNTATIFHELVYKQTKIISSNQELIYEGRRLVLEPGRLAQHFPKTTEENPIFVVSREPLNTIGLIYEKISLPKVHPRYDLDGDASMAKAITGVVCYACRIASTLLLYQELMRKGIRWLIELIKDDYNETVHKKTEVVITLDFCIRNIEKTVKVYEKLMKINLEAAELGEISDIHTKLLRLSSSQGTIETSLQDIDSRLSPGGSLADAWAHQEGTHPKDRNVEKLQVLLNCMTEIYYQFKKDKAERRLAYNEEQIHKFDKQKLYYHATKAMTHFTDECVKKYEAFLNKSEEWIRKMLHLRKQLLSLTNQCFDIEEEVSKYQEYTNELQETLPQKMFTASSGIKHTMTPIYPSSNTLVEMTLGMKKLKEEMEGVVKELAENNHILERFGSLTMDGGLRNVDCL
UniProt O15056: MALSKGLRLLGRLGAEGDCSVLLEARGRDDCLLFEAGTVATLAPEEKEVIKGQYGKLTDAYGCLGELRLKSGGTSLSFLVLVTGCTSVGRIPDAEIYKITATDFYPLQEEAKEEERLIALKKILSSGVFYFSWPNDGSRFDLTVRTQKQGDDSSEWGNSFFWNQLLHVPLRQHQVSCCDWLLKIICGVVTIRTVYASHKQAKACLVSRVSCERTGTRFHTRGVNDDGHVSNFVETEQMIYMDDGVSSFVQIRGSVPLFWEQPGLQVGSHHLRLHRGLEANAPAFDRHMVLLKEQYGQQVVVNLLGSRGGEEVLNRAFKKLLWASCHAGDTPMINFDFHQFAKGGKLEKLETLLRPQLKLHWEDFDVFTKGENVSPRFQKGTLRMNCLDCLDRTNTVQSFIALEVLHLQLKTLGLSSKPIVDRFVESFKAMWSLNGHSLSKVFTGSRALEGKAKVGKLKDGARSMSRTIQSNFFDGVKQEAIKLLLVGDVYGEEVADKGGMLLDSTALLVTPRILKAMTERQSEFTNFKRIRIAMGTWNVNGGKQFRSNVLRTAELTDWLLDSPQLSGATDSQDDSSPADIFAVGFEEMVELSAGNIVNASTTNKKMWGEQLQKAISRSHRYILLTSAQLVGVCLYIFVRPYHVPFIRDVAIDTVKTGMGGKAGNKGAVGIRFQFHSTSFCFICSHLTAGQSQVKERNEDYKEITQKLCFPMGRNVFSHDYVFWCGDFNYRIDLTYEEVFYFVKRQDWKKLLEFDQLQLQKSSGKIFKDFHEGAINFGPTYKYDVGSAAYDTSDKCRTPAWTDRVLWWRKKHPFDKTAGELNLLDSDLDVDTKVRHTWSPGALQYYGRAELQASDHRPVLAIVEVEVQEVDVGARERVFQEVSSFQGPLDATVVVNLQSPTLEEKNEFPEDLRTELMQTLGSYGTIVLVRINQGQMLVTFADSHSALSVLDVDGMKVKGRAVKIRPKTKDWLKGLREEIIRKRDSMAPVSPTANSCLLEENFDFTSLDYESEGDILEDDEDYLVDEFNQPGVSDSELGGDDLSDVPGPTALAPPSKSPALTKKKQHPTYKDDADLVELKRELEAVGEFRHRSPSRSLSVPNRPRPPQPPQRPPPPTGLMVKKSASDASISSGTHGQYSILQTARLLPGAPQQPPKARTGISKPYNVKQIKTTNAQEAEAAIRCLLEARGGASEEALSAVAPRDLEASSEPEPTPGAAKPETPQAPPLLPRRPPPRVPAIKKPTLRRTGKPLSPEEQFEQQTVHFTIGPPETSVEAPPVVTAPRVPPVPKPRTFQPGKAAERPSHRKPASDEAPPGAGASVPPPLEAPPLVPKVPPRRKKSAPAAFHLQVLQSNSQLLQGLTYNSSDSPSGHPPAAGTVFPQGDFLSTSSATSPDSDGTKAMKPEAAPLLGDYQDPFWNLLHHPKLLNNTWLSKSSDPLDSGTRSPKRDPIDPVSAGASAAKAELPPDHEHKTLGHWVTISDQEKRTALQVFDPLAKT
UniProt Q15542, whole entry, looked up: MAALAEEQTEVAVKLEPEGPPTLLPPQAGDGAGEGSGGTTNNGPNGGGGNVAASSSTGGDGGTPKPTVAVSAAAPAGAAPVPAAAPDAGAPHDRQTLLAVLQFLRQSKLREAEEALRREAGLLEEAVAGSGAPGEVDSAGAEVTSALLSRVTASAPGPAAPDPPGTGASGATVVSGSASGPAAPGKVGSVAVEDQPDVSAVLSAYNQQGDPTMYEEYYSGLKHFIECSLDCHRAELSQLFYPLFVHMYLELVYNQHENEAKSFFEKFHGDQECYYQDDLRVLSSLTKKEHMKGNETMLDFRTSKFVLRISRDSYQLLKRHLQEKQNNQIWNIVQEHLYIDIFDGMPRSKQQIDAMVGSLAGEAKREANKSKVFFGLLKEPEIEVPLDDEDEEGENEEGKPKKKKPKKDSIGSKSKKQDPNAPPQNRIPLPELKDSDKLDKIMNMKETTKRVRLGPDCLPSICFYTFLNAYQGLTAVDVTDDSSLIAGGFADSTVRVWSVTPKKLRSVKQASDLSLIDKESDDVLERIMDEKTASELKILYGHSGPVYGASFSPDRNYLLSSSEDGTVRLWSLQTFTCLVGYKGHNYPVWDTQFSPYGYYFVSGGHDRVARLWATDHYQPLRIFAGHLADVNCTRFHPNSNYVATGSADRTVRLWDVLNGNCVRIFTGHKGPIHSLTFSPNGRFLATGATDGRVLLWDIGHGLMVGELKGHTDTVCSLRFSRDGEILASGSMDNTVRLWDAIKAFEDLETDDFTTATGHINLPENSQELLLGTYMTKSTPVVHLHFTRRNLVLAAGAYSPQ
UniProt Q8TC07: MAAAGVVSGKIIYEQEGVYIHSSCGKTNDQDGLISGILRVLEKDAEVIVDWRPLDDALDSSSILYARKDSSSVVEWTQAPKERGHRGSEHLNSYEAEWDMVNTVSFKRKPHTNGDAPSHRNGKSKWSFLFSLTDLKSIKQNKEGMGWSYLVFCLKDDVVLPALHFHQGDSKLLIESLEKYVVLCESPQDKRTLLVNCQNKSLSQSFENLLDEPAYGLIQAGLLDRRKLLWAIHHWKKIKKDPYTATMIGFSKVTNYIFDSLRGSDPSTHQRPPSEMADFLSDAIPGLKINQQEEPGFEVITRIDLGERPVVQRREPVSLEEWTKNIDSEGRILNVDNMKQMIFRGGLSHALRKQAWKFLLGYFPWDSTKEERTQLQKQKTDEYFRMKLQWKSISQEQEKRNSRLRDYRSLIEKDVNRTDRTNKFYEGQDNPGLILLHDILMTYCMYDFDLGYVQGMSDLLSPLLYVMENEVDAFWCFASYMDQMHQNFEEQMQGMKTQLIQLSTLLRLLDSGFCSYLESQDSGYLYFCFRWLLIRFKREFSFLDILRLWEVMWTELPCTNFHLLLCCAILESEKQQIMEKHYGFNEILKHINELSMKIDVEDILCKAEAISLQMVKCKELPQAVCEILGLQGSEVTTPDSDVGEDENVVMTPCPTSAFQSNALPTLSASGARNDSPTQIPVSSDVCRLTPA

The targets below were run with Cc1cc(ccc1-c1ccccc1)C(=O)N1CCCN(CC1)C(=O)CCl [compound 10] (assay: probe-labelled cysteine peptide fold change vs DMSO (competition) (log2 fold change); higher = less target engagement (more negative = stronger competition)). Settings: 10 µM; THP-1; incubation time: 4 h.
“TCF20_Q9UGU0_1328_NCPAVTLTSPAK (UniProt Q9UGU0)” was tested, and the “probe-labelled cysteine peptide fold change” value was -0.301. With “TATDN1_Q6P1N9_76_DALHLAQTNGMFFSTVGCHPTR (UniProt Q6P1N9)” the “probe-labelled cysteine peptide fold change” value was 0.0651. With “TBL1XR1_Q9BZK7_434_LWDVDRGICIHTLTK (UniProt Q9BZK7)” the “probe-labelled cysteine peptide fold change” value was -0.0216. In the case of “TBL2_Q9Y4P3_247_FVASCGFTPDVK (UniProt Q9Y4P3)”, the “probe-labelled cysteine peptide fold change” value is reported as -0.438. With “TAF2_Q6P1X5_357_CLAQSLAQQFFGCFISR (UniProt Q6P1X5)” the “probe-labelled cysteine peptide fold change” value was 0.129. In the case of “TBL1XR1_Q9BZK7_434_GICIHTLTK (UniProt Q9BZK7)”, the “probe-labelled cysteine peptide fold change” value is reported as 0.0165. For “TBL3_Q12788_526_GLWCVQFSPMDQVLATASADGTIK (UniProt Q12788)”, the “probe-labelled cysteine peptide fold change” value was 0.119. “TAX1BP1_Q86VP1_196_CDQLQAEQK (UniProt Q86VP1)” was tested, and the “probe-labelled cysteine peptide fold change” value was -0.183. In the case of “TBC1D1_Q86TI0_387+390_APAQLCEGCPLQSLHK (UniProt Q86TI0)”, the “probe-labelled cysteine peptide fold change” value is reported as 0.127. In the case of “TBCB_Q99426_83_LDQEDALLGSYPVDDGCR (UniProt Q99426)”, the “probe-labelled cysteine peptide fold change” value is reported as 0.109. With “TCEA1_P23193_291_SADEPMTTFVVCNECGNR (UniProt P23193)” the “probe-labelled cysteine peptide fold change” value was 0.098. “TADA2B_Q86TJ2_32+35_CTECQDIELCPECFSAGAEIGHHR (UniProt Q86TJ2)” was tested, and the “probe-labelled cysteine peptide fold change” value was 0.314. In the case of “TARS_P26639_630_QVMVVPVGPTCDEYAQK (UniProt P26639)”, the “probe-labelled cysteine peptide fold change” value is reported as -0.189. “TBCK_Q8TEA7_74_LVVVAEHCER (UniProt Q8TEA7)” was tested, and the “probe-labelled cysteine peptide fold change” value was 0.166. In the case of “TANK_Q92844_318_TKPSNLVNTCIR (UniProt Q92844)”, the “probe-labelled cysteine peptide fold change” value is reported as -0.257. With “TBL3_Q12788_511_LWALPQCQLLGVFSGHR (UniProt Q12788)” the “probe-labelled cysteine peptide fold change” value was -0.251. With “TARSL2_A2RTX5_637_YHQCATIQLDFQLPIR (UniProt A2RTX5)” the “probe-labelled cysteine peptide fold change” value was 0.00987. “TAX1BP1_Q86VP1_328_LQLCLAEK (UniProt Q86VP1)” was tested, and the “probe-labelled cysteine peptide fold change” value was -0.303. “TAF1B_Q53T94_326_YLMEVNLPDEMHSLTCHVVK (UniProt Q53T94)” was tested, and the “probe-labelled cysteine peptide fold change” value was 0.0813. With “TARS_P26639_137_VNNVVWDLDRPLEEDCTLELLKFEDEEAQAVYWHSSAHIMGEAMER (UniProt P26639)” the “probe-labelled cysteine peptide fold change” value was -0.123. For “SYNE1_Q8NF91_6460_NLFSQAFPENGDNRDVIEDTLGCLLGR (UniProt Q8NF91)”, the “probe-labelled cysteine peptide fold change” value was 0.0214. “TBL1X_O60907_571_VGASASDGSVCVLDLRK (UniProt O60907)” was tested, and the “probe-labelled cysteine peptide fold change” value was -0.412. With “TBCK_Q8TEA7_54_LCQYVDISR (UniProt Q8TEA7)” the “probe-labelled cysteine peptide fold change” value was 0.114. For “TCIRG1_Q13488_317_CLIAEAWCSVR (UniProt Q13488)”, the “probe-labelled cysteine peptide fold change” value was -0.0268. For “TAOK1_Q7L7X3_730_QFQDTCK (UniProt Q7L7X3)”, the “probe-labelled cysteine peptide fold change” value was 0.127. With “SZT2_Q5T011_2893_EAPTSCESLDVSPPGAR (UniProt Q5T011)” the “probe-labelled cysteine peptide fold change” value was -0.219. For “TBK1_Q9UHD2_605_AMTHFTDECVK (UniProt Q9UHD2)”, the “probe-labelled cysteine peptide fold change” value was -0.171. With “SYVN1_Q86TM6_307_RLPCNHIFHTSCLR (UniProt Q86TM6)” the “probe-labelled cysteine peptide fold change” value was 0.169. For “TADA3_O75528_255_KSEAQHEQPEDGCPFGALTQR (UniProt O75528)”, the “probe-labelled cysteine peptide fold change” value was -0.119. “SZT2_Q5T011_2019_APLPSDDYAADESCAPR (UniProt Q5T011)” was tested, and the “probe-labelled cysteine peptide fold change” value was -0.457. With “SYNJ2_O15056_63_LTDAYGCLGELR (UniProt O15056)” the “probe-labelled cysteine peptide fold change” value was 0.0226. In the case of “TAF5_Q15542_661_LWDVLNGNCVR (UniProt Q15542)”, the “probe-labelled cysteine peptide fold change” value is reported as -0.124. In the case of “TBCA_O75347_67_MMIPDCQR (UniProt O75347)”, the “probe-labelled cysteine peptide fold change” value is reported as 0.271. For “TARBP1_Q13395_1556_SLDLTQYCFPEK (UniProt Q13395)”, the “probe-labelled cysteine peptide fold change” value was 0.0901. With “TBC1D15_Q8TC07_184_YVVLCESPQDK (UniProt Q8TC07)” the “probe-labelled cysteine peptide fold change” value was 0.0735.

Same assay, conditions: 50 µM; THP-1; incubation time: 4 h
“TCF20_Q9UGU0_1328_NCPAVTLTSPAK (UniProt Q9UGU0)” was tested, and the “probe-labelled cysteine peptide fold change” value was -0.252. “TATDN1_Q6P1N9_76_DALHLAQTNGMFFSTVGCHPTR (UniProt Q6P1N9)” was tested, and the “probe-labelled cysteine peptide fold change” value was 0.0523. For “TBL1XR1_Q9BZK7_434_LWDVDRGICIHTLTK (UniProt Q9BZK7)”, the “probe-labelled cysteine peptide fold change” value was -0.194. For “TBL2_Q9Y4P3_247_FVASCGFTPDVK (UniProt Q9Y4P3)”, the “probe-labelled cysteine peptide fold change” value was -0.381. “TAF2_Q6P1X5_357_CLAQSLAQQFFGCFISR (UniProt Q6P1X5)” was tested, and the “probe-labelled cysteine peptide fold change” value was 0.279. “TBL1XR1_Q9BZK7_434_GICIHTLTK (UniProt Q9BZK7)” was tested, and the “probe-labelled cysteine peptide fold change” value was 0.0285. “TBL3_Q12788_526_GLWCVQFSPMDQVLATASADGTIK (UniProt Q12788)” was tested, and the “probe-labelled cysteine peptide fold change” value was 0.0335. For “TAX1BP1_Q86VP1_196_CDQLQAEQK (UniProt Q86VP1)”, the “probe-labelled cysteine peptide fold change” value was -0.305. “TBC1D1_Q86TI0_387+390_APAQLCEGCPLQSLHK (UniProt Q86TI0)” was tested, and the “probe-labelled cysteine peptide fold change” value was -0.372. For “TBCB_Q99426_83_LDQEDALLGSYPVDDGCR (UniProt Q99426)”, the “probe-labelled cysteine peptide fold change” value was 0.107. “TCEA1_P23193_291_SADEPMTTFVVCNECGNR (UniProt P23193)” was tested, and the “probe-labelled cysteine peptide fold change” value was -0.00719. With “TADA2B_Q86TJ2_32+35_CTECQDIELCPECFSAGAEIGHHR (UniProt Q86TJ2)” the “probe-labelled cysteine peptide fold change” value was 0.417. In the case of “TARS_P26639_630_QVMVVPVGPTCDEYAQK (UniProt P26639)”, the “probe-labelled cysteine peptide fold change” value is reported as 0.0903. In the case of “TBCK_Q8TEA7_74_LVVVAEHCER (UniProt Q8TEA7)”, the “probe-labelled cysteine peptide fold change” value is reported as 0.672. For “TANK_Q92844_318_TKPSNLVNTCIR (UniProt Q92844)”, the “probe-labelled cysteine peptide fold change” value was -0.558. “TBL3_Q12788_511_LWALPQCQLLGVFSGHR (UniProt Q12788)” was tested, and the “probe-labelled cysteine peptide fold change” value was -0.0639. “TARSL2_A2RTX5_637_YHQCATIQLDFQLPIR (UniProt A2RTX5)” was tested, and the “probe-labelled cysteine peptide fold change” value was 0.158. In the case of “TAX1BP1_Q86VP1_328_LQLCLAEK (UniProt Q86VP1)”, the “probe-labelled cysteine peptide fold change” value is reported as -0.432. In the case of “TAF1B_Q53T94_326_YLMEVNLPDEMHSLTCHVVK (UniProt Q53T94)”, the “probe-labelled cysteine peptide fold change” value is reported as 0.0691. For “TARS_P26639_137_VNNVVWDLDRPLEEDCTLELLKFEDEEAQAVYWHSSAHIMGEAMER (UniProt P26639)”, the “probe-labelled cysteine peptide fold change” value was -0.673. For “SYNE1_Q8NF91_6460_NLFSQAFPENGDNRDVIEDTLGCLLGR (UniProt Q8NF91)”, the “probe-labelled cysteine peptide fold change” value was 0.236. For “TBL1X_O60907_571_VGASASDGSVCVLDLRK (UniProt O60907)”, the “probe-labelled cysteine peptide fold change” value was -0.304. “TBCK_Q8TEA7_54_LCQYVDISR (UniProt Q8TEA7)” was tested, and the “probe-labelled cysteine peptide fold change” value was 0.0076. In the case of “TCIRG1_Q13488_317_CLIAEAWCSVR (UniProt Q13488)”, the “probe-labelled cysteine peptide fold change” value is reported as 0.103. “TAOK1_Q7L7X3_730_QFQDTCK (UniProt Q7L7X3)” was tested, and the “probe-labelled cysteine peptide fold change” value was -0.114. With “SZT2_Q5T011_2893_EAPTSCESLDVSPPGAR (UniProt Q5T011)” the “probe-labelled cysteine peptide fold change” value was -0.105. For “TBK1_Q9UHD2_605_AMTHFTDECVK (UniProt Q9UHD2)”, the “probe-labelled cysteine peptide fold change” value was 0.226. With “SYVN1_Q86TM6_307_RLPCNHIFHTSCLR (UniProt Q86TM6)” the “probe-labelled cysteine peptide fold change” value was 0.0514. For “TADA3_O75528_255_KSEAQHEQPEDGCPFGALTQR (UniProt O75528)”, the “probe-labelled cysteine peptide fold change” value was -0.378. “SZT2_Q5T011_2019_APLPSDDYAADESCAPR (UniProt Q5T011)” was tested, and the “probe-labelled cysteine peptide fold change” value was -0.0896. In the case of “SYNJ2_O15056_63_LTDAYGCLGELR (UniProt O15056)”, the “probe-labelled cysteine peptide fold change” value is reported as 0.227. “TAF5_Q15542_661_LWDVLNGNCVR (UniProt Q15542)” was tested, and the “probe-labelled cysteine peptide fold change” value was 0.173. For “TBCA_O75347_67_MMIPDCQR (UniProt O75347)”, the “probe-labelled cysteine peptide fold change” value was -0.0236. With “TARBP1_Q13395_1556_SLDLTQYCFPEK (UniProt Q13395)” the “probe-labelled cysteine peptide fold change” value was -0.197. With “TBC1D15_Q8TC07_184_YVVLCESPQDK (UniProt Q8TC07)” the “probe-labelled cysteine peptide fold change” value was 0.217.
